# Source: PMC12120893
# The exact form of at least one protein or probe is not confirmed. For some assays here: At least one verdict was read from the data and is not stated in words by the source.
# Key:
# [1] = test system: CtAP2/ERF4 (Cymbidium tracyanum); assay: EMSA; settings: 50x and 200x unlabeled competitor used; Beyotime EMSA/Gel-Shift kit per manufacturer; pH and temperature not stated; recombinant protein; protein details: His (pET-32a fusion); label: 5' biotin
# [2] = test system: CtAP2/ERF1 (Cymbidium tracyanum); assay: EMSA; settings: 50x and 200x unlabeled competitor used; Beyotime EMSA/Gel-Shift kit per manufacturer; pH and temperature not stated; recombinant protein; protein details: His (pET-32a fusion); label: 5' biotin
Sequence,binding result [1],binding result [2]
CATGTAGCCGACCCCACTTA (double strand) [pCtTPS2 -702/-721 (AP2 element)],binds,–
GTCTCACGACCAGGATTTCC (double strand) [pCtTPS1 -868/-887 (AP2 element)],–,binds
